Source: patent US20250243292A1
Where a chain is given by its changes, count along the chain named. No constants are given. Whether binding was seen depends on the method and setting. Some binding calls cover weakened binding; strength is not graded here. For part of these data: Sequences can lack the tags named with a protein.

Legend:
[1] = molecular target: T1, human CD24 as expressed on cancer cell lines and in tumor tissues (human); assay: immunofluorescence staining of 4 medulloblastoma tumors
T1 sequence (chain, cancer-type glycosylation, not further described; GPI-linked): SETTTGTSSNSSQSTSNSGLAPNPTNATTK

[2] = molecular target: T1, human CD24 as expressed on cancer cell lines and in tumor tissues (human); assay: IFA staining of medulloblastoma tumors
[3] = molecular target: T1, human CD24 as expressed on cancer cell lines and in tumor tissues (human); assay: FACS on neuroblastoma cell lines
[4] = molecular target: T2, fully glycosylated CD24 (recombinant, from CHO cells); assay: ELISA
T2 sequence (chain, N-glycans, sialic acid and O-glycans kept (untreated)): T1 sequence (chain, cancer-type glycosylation, not further described; GPI-linked)

N-CD24 = molecular target: T3, N-CD24; assay: ELISA
T3 sequence (chain, N-glycans removed with N-glycanase; sialic acid and O-glycans kept): T1 sequence (chain, cancer-type glycosylation, not further described; GPI-linked)

N-SA-O-CD24 = molecular target: T4, N-SA-O-CD24; assay: ELISA
T4 sequence (chain, N-glycans, sialic acid and O-glycans removed): T1 sequence (chain, cancer-type glycosylation, not further described; GPI-linked)

[5] = molecular target: T1, human CD24 as expressed on cancer cell lines and in tumor tissues (human); assay: flow cytometry on neuroblastoma cell lines (FIG. 2A)
[6] = molecular target: T1, human CD24 as expressed on cancer cell lines and in tumor tissues (human); assay: flow cytometry on IMR32, SK-N-SH, SH-SY5Y, SK-N-BE(2), SK-N-BE(2) C cells
[7] = molecular target: T1, human CD24 as expressed on cancer cell lines and in tumor tissues (human); assay: antibody titration on H727 and IMR32 cells
CD24-GST fusion protein [8] = molecular target: T5, CD24-GST fusion protein; assay: ELISA on coated CD24-GST, goat-anti-human IgG-HRP detection
T5 sequence: T1 sequence (chain, cancer-type glycosylation, not further described; GPI-linked)

[9] = molecular target: T1, human CD24 as expressed on cancer cell lines and in tumor tissues (human); assay: flow cytometry with biotinylated antibodies on NCI-H727 and IMR32 cells
[10] = molecular target: T1, human CD24 as expressed on cancer cell lines and in tumor tissues (human); assay: immunofluorescence with biotinylated PP6373 on cancer tissues
[11] = molecular target: T1, human CD24 as expressed on cancer cell lines and in tumor tissues (human); assay: flow cytometry on NCI-H727 and IMR32 cells
CD24-GST fusion protein [12] = molecular target: T5, CD24-GST fusion protein; assay: ELISA on coated CD24-GST with expression media, against IgG amount by anti-human IgG ELISA
[13] = molecular target: T1, human CD24 as expressed on cancer cell lines and in tumor tissues (human); assay: flow cytometry on human cancer cell lines
3B6 [14] = assay: peptide inhibition assay
3B6 [15] = assay: peptide inhibition ELISA, peptide pre-incubated with 3B6, plate coated with NO-CD24

Measured: binding

B1: 3B6 (antibody, V domains shown)
VH: EVKFEESGGGLVQPGGSIKLSCAASGVTFSEAWMDWVRQSPEKGLEWVAEIRDKTKNYVTYYAESVKGRFTISRDDSKSRVYLQMNNLRTEDTGIYYCTGAMDYWGQGTSVTVSS
VL: DIVMTQTPLSLSVTIGQPASISCKSSQSLLYSNGKTYLNWLQQRPGQSPKRLIYQVSKLDPGIPDRFSGSGSETDFTLKISRVEAEDLGIYYCLQGTSYPWTFGGGTKLEIKR
binds: [1] | [2] | [3] | [4] | N-CD24 | N-SA-O-CD24 | [5] | [6]

B2: PP6373 (antibody, human IgG1, kappa, V domains shown)
VH: B1 VH with T55P, K56N, N57S
VL: B1 VL with L94M, T97S, Y99L
binds: [7] | CD24-GST fusion protein [8] | [9] | [10]

B3: H2L3 (antibody, V domains shown)
VH: EVQFVESGGGLVQPGGSLKLSCAASGVTFSEAWMDWVRQASGKGLEWVAEIRDKPNSYVTYYAESVKGRFTISRDDSKSTAYLQMNSLKTEDTAVYYCTGAMDYWGQGTLVTVSS
VL: B1 VL with Q42L, R44K, L88V, L94M, T97S, Y99L, L109V
binds: [11] | [9] | CD24-GST fusion protein [12] | [13]

B4: H3L3 (antibody, V domains shown)
VH: B3 VH with V95I
VL: B1 VL with Q42L, R44K, L88V, L94M, T97S, Y99L, L109V
binds: [11] | [9] | CD24-GST fusion protein [12] | [13]

SNSGLAPNPT [peptide 4]
binds: 3B6 [14] | 3B6 [15]

B5: H1L3 (antibody, V domains shown)
VH: B3 VH with A49G, S79N
VL: B1 VL with Q42L, R44K, L88V, L94M, T97S, Y99L, L109V
binds: CD24-GST fusion protein [12]

B6: H4L3 (antibody, V domains shown)
VH: B3 VH with A81V, V95I
VL: B1 VL with Q42L, R44K, L88V, L94M, T97S, Y99L, L109V
binds: CD24-GST fusion protein [12]
